From PubChem BioAssay AID1688 (National Center for Advancing Translational Sciences (NCATS), 2009)
Screen size: about 220,000 compounds; about 2,400 (1.1%) were called active. The inconclusive results got no clear call from the source; some entries with a clear call stand among them for comparison. Calls come from the whole dose curve; as a rule, active = well fitted inhibition curve with a large enough effect; inconclusive = small, poorly fitted or top-dose-only effect, or effect the other way; inactive = no such curve, though single readings can be large or run the other way. Where the call is inconclusive, the potency comes from a doubtful curve fit.

Experiment: qHTS Multiplex Assay to Identify Dual Action Probes in a Cell Model of Huntington: Aggregate Formation (GFP); note: nearly all actives have a fitted effect of over 60% in size
Conditions: PC12 HttQ103-GFP aggregates, Acumen cytometry, 40 h; activity change, negative = inhibition: at 46.1 µM (top of the series) unless noted
How it was run: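 Aggregate formation scored by laser-scanning cytometer (488 excitation, 500–530 emission) in lysed PC12 cells expressing Q103-GFP after 100 nM tebufenozide induction; library tested in dose series, with ATPLite reagent added in the multiplex.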
% is set by controls: 0 for no effect and ±100 for the full control effect; potency is the fitted concentration of half-maximal effect.

Row | SMILES | Potency | activity change, negative = inhibition
1 | N#Cc1c2c(c(=S)n(-c3ccccc3)c1N)CCCC2 | inconclusive: 35.5 µM [inhibitor, single point] | –
2 | Cc1ccc(S(=O)(=O)N(C)C)cc1NC(=S)NC1CCCC(C)C1C (stereo unspecified) | inconclusive: 15.8 µM [inhibitor, single point] | –
3 | CCn1c(CNC(=O)c2cccc(C)c2)nc2ccccc21 | inconclusive: 1.26 µM [activator, single point] | –
4 | COc1ccc(N2Cc3cccc(C(=O)NC(C)CCc4ccco4)c3C2=O)cc1 (stereo unspecified) | inconclusive: 22.4 µM [activator, single point] | –
5 | COc1ccc(NS(=O)(=O)c2ccc(NC(=S)NC(=O)c3cccc(F)c3)cc2)nn1 | inconclusive: 35.5 µM [activator, single point] | –
6 | CC(=O)c1ccc(NC(=O)Nc2ncn(Cc3cccc(C)c3)n2)cc1 | inconclusive: 0.0006 µM [inhibitor] | –
7 | CN(C)S(=O)(=O)c1cccc(-c2nn(-c3ccccc3)cc2/C=C2\SC(=S)NC2=O)c1 | inconclusive: 28.2 µM [inhibitor, single point] | –
8 | Cc1nc(SCC(=O)c2cc3ccccc3oc2=O)c(C#N)c(C)c1C(=O)Nc1ccccc1 | inconclusive: 0.562 µM [inhibitor, full curve] | –
9 | Cc1cc(N=Nc2ccc(C)c(N=Nc3cc(C)c(N)cc3N)c2)c(N)cc1N | – | inactive: -13.5% [at 9.22 µM]
10 | CC(=O)c1cc(C#N)c(NCc2ccccc2)nc1C | inconclusive: 7.94 µM [activator, partial curve] | –
11 | N#C/C(=C/c1ccc(Sc2nc3ccccc3[nH]2)o1)c1cccc(F)c1 | inconclusive: 2.82 µM [inhibitor, single point] | –
12 | COc1cc(CN(C(=S)NCC(=O)N2CCCC2)C2CCCC2)cc(OC)c1OC | – | inactive: -4.54%
13 | COc1ccc(N(CC(=O)NCCSC2CCCCC2)S(C)(=O)=O)c(OC)c1 | inconclusive: 25.1 µM [inhibitor, single point] | –
14 | CC1CCCC(NC(=S)Nc2ccc(SC(F)F)cc2)C1C (stereo unspecified) | inconclusive: 35.5 µM [inhibitor, single point] | –
15 | COc1ccccc1N1CCN(C(c2cccs2)C(C)NC(=O)c2ccncc2)CC1 (stereo unspecified) | – | inactive: -1.23% [at 9.22 µM]
16 | c1ccc(COc2ccc(Oc3nc(N4CCCCC4)nc(N4CCOCC4)n3)nn2)cc1 | – | inactive: -10%
17 | CC(C)(C)c1ccc(-c2nnc(SCCC#N)n2C2CCCC2)cc1 | active: 11.2 µM | –
18 | CC1CN(CC(O)COC(c2ccccc2)c2ccccc2)CC(C)O1 (stereo unspecified) | – | inactive: -1.62%
19 | CCN(CC)C(=O)c1ccc(COc2ccccc2Cl)cc1 | – | inactive: 6.59% [at 9.22 µM]
20 | Cc1nn(C)c(C)c1Nc1ccc(N2C(=O)C3CC=CCC3C2=O)cc1[N+](=O)[O-] (stereo unspecified) | inconclusive: 3.55 µM [inhibitor, partial curve] | –
21 | S=C(NCc1cccs1)Nc1cccc(Cl)c1Cl | inconclusive: 5.01 µM [inhibitor, single point] | –
22 | Cc1ccc(-c2nc(=S)c3c(n2Cc2ccco2)CC(C)(C)OC3)cc1 | inconclusive: 28.2 µM [activator, partial curve, poor fit] | –
23 | Cc1cc(/C=C2\NC(=O)NC2=O)c(C)n1-c1cccnc1 | – | inactive: 11.6% [at 9.22 µM]
24 | O=C(NCc1ccccc1)NC1CCCCC1 | – | inactive: 14.8%

Entries of single compounds, quoted from the list.
CC(=O)c1cc(C#N)c(NCc2ccccc2)nc1C reads Potency: inconclusive: 7.94 µM [activator, partial curve]
COc1ccc(N(CC(=O)NCCSC2CCCCC2)S(C)(=O)=O)c(OC)c1 reads Potency: inconclusive: 25.1 µM [inhibitor, single point]

Carrying on.

Row | SMILES | Potency | activity change, negative = inhibition
25 | COc1cccc2c1NC(C(=O)O)C1CC=CC21 (stereo unspecified) | – | inactive: -10.7%
26 | O=C(N/N=C/c1cc([N+](=O)[O-])ccc1O)c1cccc2cc[nH]c12 | inconclusive: 3.98 µM [inhibitor, single point] | –
27 | O=C(c1cccc(F)c1)N1CCN(C(=O)c2cc(-c3ccc(Cl)cc3Cl)on2)CC1 | inconclusive: 35.5 µM [inhibitor, single point] | –
28 | Cc1ccc(CNC(=O)Cc2cccs2)cc1 | – | inactive: 11.4%
29 | O=C(/C=C/c1ccccc1)NC1CC2CCCC(C1)N2Cc1ccccc1 (stereo unspecified) | – | inactive: 38.4% [at 9.22 µM]
30 | O=C(COc1ccc(Cl)cc1Cl)NC(=S)Nc1ccc(CN2CCOCC2)cc1 | – | inactive: 8.73% [at 9.22 µM]
31 | O=C(O)c1ccccc1Nc1cccc(C(F)(F)F)c1 | inactive | –
32 | Cn1ncc2c(Nc3ccc(Br)cc3)nc(Nc3ccc(Br)cc3)nc21 | – | inactive: -5.67% [at 9.22 µM]
33 | CCCCc1ccc(NC=C2C(=O)OC3(CCCCC3)OC2=O)cc1 | inconclusive: 3.98 µM [activator, full curve, poor fit] | –
34 | Nc1[nH]nc2nc3ccccc3cc12 | – | inactive: -4.38%
35 | Cc1ccccc1Oc1cc(NC(=O)CCCn2nc(C)c([N+](=O)[O-])c2C)cc([N+](=O)[O-])c1 | inconclusive: 12.6 µM [inhibitor, partial curve] | –
36 | COc1ccc2c(c1)CCc1c(C(=O)N3CCc4ccccc4C3)noc1-2 | inconclusive: 35.5 µM [inhibitor, single point] | –
37 | Cn1c(=O)c2c(ncn2Cc2ccc(Cl)c(Cl)c2)n(C)c1=O | inconclusive: 35.5 µM [inhibitor, single point] | –
38 | Cc1ccc(/C=C/c2nc3ccccc3[nH]2)o1 | inconclusive: 11.2 µM [activator, single point] | –
39 | CCC(C)C1=CC(=Nc2c(C)n(C)n(-c3ccccc3)c2=O)C=C(C(C)CC)C1=O (stereo unspecified) | – | inactive: -17.2%
40 | CCN(Cc1ccccc1)S(=O)(=O)c1ccc(C(=O)N2CCN(c3nc4ccccc4s3)CC2)cc1 | inconclusive: 4.47 µM [inhibitor, full curve, poor fit] | –
41 | CC1CCN(C2=C(NS(=O)(=O)c3ccccc3)C(=O)c3ccccc3C2=O)CC1 | – | inactive: 5.76% [at 9.22 µM]
42 | CCCCCC1CC(CC(=O)Nc2nncs2)C(=O)O1 (stereo unspecified) | – | inactive: -15%
43 | Cc1cc(C)cc(C(=O)N(NC(=O)Nc2ccc(Cl)cc2)C(C)(C)C)c1 | inconclusive: 25.1 µM [inhibitor, single point] | –
44 | Cc1cccc2sc(NC(=O)C3c4ccccc4Oc4ccccc43)nc12 | inconclusive: 20 µM [inhibitor, single point] | –
45 | O=C(N/N=C/c1sc(=O)n(-c2ccccc2)c1Cl)c1ccccc1 | – | inactive: 12.2%
46 | Clc1ccc(-n2nnnc2SCc2c(-c3ccccc3)nc3sccn23)cc1 | inconclusive: 35.5 µM [inhibitor, single point] | –
47 | C=CCSc1nc2c(c(=O)[nH]c(=O)n2C)n1C/C=C(/C)Cl | – | inactive: -15.7%
48 | Cc1ccc(NCCC(=O)c2ccc(Cl)cc2)cc1C | – | inactive: 2.71%

Among those listed so far, these contain a COOH group.
Row | SMILES | Potency | activity change, negative = inhibition
25 | COc1cccc2c1NC(C(=O)O)C1CC=CC21 (stereo unspecified) | – | inactive: -10.7%
31 | O=C(O)c1ccccc1Nc1cccc(C(F)(F)F)c1 | inactive | –

Further results.

Row | SMILES | Potency | activity change, negative = inhibition
49 | C/C(=N\NC(=O)CSCc1ccc([N+](=O)[O-])cc1)c1ccccc1O | active: 10 µM | –
50 | Cc1ccc(Cn2c(=S)[nH]c3ccc(N4CCOCC4)cc3c2=O)o1 | inconclusive: 35.5 µM [inhibitor, single point] | –
51 | O=C(O)c1ccc(NC2=C/C(=N/S(=O)(=O)c3ccccc3)c3ccccc3C2=O)cc1 | active: 15.8 µM | –
52 | COc1ccc(/C=N/n2cnn(Cc3ccccc3Cl)c2=S)cc1OC | inconclusive: 10 µM [inhibitor, partial curve, poor fit] | –
53 | COc1cccc(C(=O)Oc2c(Br)cc(Br)cc2/C=N/NC(=O)c2cc(C)[nH]n2)c1 | inconclusive: 3.55 µM [inhibitor, single point] | –
54 | Cc1ccc(NC(=O)CN(C)C(=O)CSc2nnc(C(F)(F)F)n2C)cc1 | inconclusive: 7.94 µM [activator, partial curve] | –
55 | Cc1cc(F)ccc1S(=O)(=O)Nc1ccccc1C(=O)Nc1ccccc1N1CCOCC1 | inconclusive: 35.5 µM [inhibitor, single point] | –
56 | CCCCOc1ccccc1NC(=O)c1scc2c1OCCO2 | active: 12.6 µM | –
57 | CN(/C=C1/C(=O)CNC1=O)CCO | – | inactive: -4.41%
58 | COC(=O)Cn1c(=NC(=O)c2ccc(Cl)s2)sc2cc(C)ccc21 | – | inactive: -13.1%
59 | CCOC(=O)c1ccc(N2C(=O)CC(N3CCN(Cc4ccccc4)CC3)C2=O)cc1 (stereo unspecified) | – | inactive: 2.81%
60 | O=S(=O)(Nc1nc2ccccc2s1)c1ccc(Cl)s1 | inconclusive: 14.1 µM [inhibitor, single point] | –
61 | COc1ccc(-c2nn(-c3ccccc3)cc2/C=N/N2C(=O)CSC2=S)cc1 | inconclusive: 11.2 µM [inhibitor, partial curve, poor fit] | –
62 | O=C(O)CC(CC(=O)Nc1nncs1)c1ccccc1 (stereo unspecified) | inconclusive: 0.562 µM [activator, full curve, poor fit] | –
63 | CC(C)(C)c1cc(CCC(=O)NNC(=S)NC(=O)c2ccccc2)cc(C(C)(C)C)c1O | inconclusive: 2.82 µM [inhibitor, partial curve] | –
64 | CCOC(=O)C1=C(C)N(C)C(=S)NC1c1ccc(Cl)cc1 (stereo unspecified) | active: 20 µM | –
65 | Cc1ccc(-n2c(C)cc(/C=C3\NC(=O)NC3=O)c2C)c(C)c1 | – | inactive: 11.7%
66 | Cc1cc(N2CCCC2=O)cc(C)c1S(=O)(=O)NCCOc1ccccc1 | inconclusive: 10 µM [inhibitor, partial curve, poor fit] | –
67 | Cc1ccccc1OCC(=O)NN1CCN(C)CC1 | inconclusive: 5.62 µM [activator, single point] | –
68 | c1cnc2ccc(C(c3nnnn3C3CCCC3)N3CCN(c4nc5ccccc5s4)CC3)cc2c1 (stereo unspecified) | inconclusive: 1 µM [inhibitor, single point] | –
69 | Cc1ccccc1C(=O)Nc1cccc(NC(=O)Cn2cnc3c(=O)n(C)c(=O)n(C)c32)c1 | inconclusive: 0.562 µM [inhibitor, partial curve, poor fit] | –
70 | COc1ccc(CNC(=O)C(c2ccco2)N(Cc2ccccc2)C(=O)Cc2cccs2)cc1 (stereo unspecified) | inconclusive: 35.5 µM [inhibitor, single point] | –
71 | COc1cccc(N2C(=O)c3ccncc3C2=O)c1 | – | inactive: 10.3%
